# The other results are listed elsewhere or left out. Shown are side measurements of this screen, not its main read-out; they come without a call. Compounds called inactive in the main read-out are mostly missing here. Words in brackets tell the shape of the fitted curve; partial curves, single points and poor fits give uncertain potencies.
# Experiment: qHTS Assay to Find Inhibitors of Chronic Active B-Cell Receptor Signaling
# Details: ABC-DLBCL IkBa-CBG/CBR reporter, luminescence ratio (green luciferase fused to IkBa over red control in TMD8 lymphoma cells), 4 h
# Outline: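 TMD8 human ABC-DLBCL cells with doxycycline-inducible IκBα–green luciferase fusion and unfused red luciferase, in 0.5% FBS medium; compounds up to 46 uM, 4 h at 37C. Green/red luminescence ratio, filter-overlap corrected, fitted to concentration-response curves.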
# [1] = measured here: CBR red luminescence, cell number
# [2] = measured here: IkBa-CBG green luminescence
SMILES,AC50 [1],AC50 [2]
c1ccc(-c2cc(-c3nc4ccccc4[nH]3)c3ccccc3n2)cc1,"10.3 µM [falling, single point]",–
CSc1nc(Oc2ccccc2)c2sccc2n1,"29.1 µM [rising, single point]",–
COc1cc(C(=O)OCC(=O)N(C)C)cc(NC(=O)c2ccco2)c1OC,"35.5 µM [falling, partial curve, poor fit]",–
CC(=O)Oc1ccc2nc(/C=C/c3ccccc3)oc(=O)c2c1,"0.282 µM [falling, full curve, poor fit]",–
Cc1ccc(-c2nn(-c3ccccc3)cc2/C=N/NC(=O)c2ccncc2)o1,"10 µM [rising, partial curve, poor fit]",–
Cn1c(C(=O)NCc2ccc3c(c2)OCO3)cc2sccc21,"3.55 µM [rising, single point]",–
Cc1ccc2cc(NC(=O)c3cccc(F)c3)ccc2n1,"10 µM [falling, partial curve, poor fit]",–
C=C(C)C1CC=C(C)/C(=N\NC(=O)CNc2cccc3ccccc23)C1 (stereo unspecified),"6.51 µM [rising, single point]",–
CCOC(=O)c1c(C)[nH]c(C)c1C(=O)COc1ccc(NC(=O)c2ccco2)cc1,"23.1 µM [rising, partial curve]",–
CCOc1ccc(C(=O)OCC(=O)Nc2cccnc2Cl)cc1OCC,"6.51 µM [rising, partial curve, poor fit]",–
C/C(=N/NC(=O)c1ccco1)c1cccc(NC(=O)c2ccc(C)o2)c1,"35.5 µM [falling, single point]",–
COc1ccc(C)cc1S(=O)(=O)NCC(c1ccc2c(c1)OCO2)N1CCN(C)CC1 (stereo unspecified),"23.1 µM [falling, partial curve, poor fit]",–
CCNC(=S)N/N=C(\C)c1cccc([N+](=O)[O-])c1,–,"18.4 µM [falling, single point]"
COc1ccc(CNc2ccc(C)c(C)c2)c(OC)c1OC,"3.55 µM [rising, full curve, poor fit]",–
COc1cccc(CNC(=O)Cn2ccc3cc(S(=O)(=O)N4CCCC4)ccc32)c1,"14.1 µM [rising, single point]",–
COc1cc(C(=S)N2CCOCC2)ccc1OS(=O)(=O)c1ccccc1[N+](=O)[O-],"5.8 µM [rising, partial curve, poor fit]",–
COCCCNCCCOc1ccc(Cl)cc1C(C)(C)C,"1.46 µM [falling, full curve, poor fit]",–
COc1cccc(C2c3[nH]c4ccccc4c3C[C@H]3C(=O)N(C4CCN(Cc5ccccc5)CC4)CC(=O)N23)c1 (stereo partly specified),"35.5 µM [falling, single point]",–
COCCNC(=O)COC(=O)CSCc1nc2ccccc2s1,"1.12 µM [rising, partial curve, poor fit]",–
Cc1ccc(S(=O)(=O)NNC(=S)Nc2c(Cl)cccc2Cl)cc1,"7.08 µM [falling, partial curve, poor fit]",–
O=C(Nc1nc2nc(-c3ccccc3)cc(=O)n2[nH]1)c1ccc(F)cc1,"16.4 µM [falling, partial curve, poor fit]",–

# Record cards, as listed above.
# Cc1ccc(S(=O)(=O)NNC(=S)Nc2c(Cl)cccc2Cl)cc1 in the list: AC50 [1]: 7.08 µM [falling, partial curve, poor fit]
# C/C(=N/NC(=O)c1ccco1)c1cccc(NC(=O)c2ccc(C)o2)c1 in the list: AC50 [1]: 35.5 µM [falling, single point]
# c1ccc(-c2cc(-c3nc4ccccc4[nH]3)c3ccccc3n2)cc1 in the list: AC50 [1]: 10.3 µM [falling, single point]

# Additional entries:

SMILES,AC50 [1],AC50 [2]
O=C(NCCCN=C1NS(=O)(=O)c2ccccc21)c1ccc(S(=O)(=O)N2CCOCC2)cc1,"14.6 µM [rising, single point]",–
O=C(CSc1ncnc2ccccc12)Nc1cccc(S(=O)(=O)N2CCOCC2)c1,"10 µM [falling, partial curve]","20 µM [rising, partial curve, poor fit]"
CCOC(=O)C1=C(C)N(c2ccccc2)C(=O)C1CC(=O)O (stereo unspecified),"11.2 µM [falling, partial curve]",–
Nc1ccc(Sc2cc(Cl)nc(N)n2)cc1,"1.3 µM [rising, full curve, poor fit]","2.91 µM [falling, partial curve, poor fit]"
O=C1/C(=C\c2ccc3ccccc3c2)CCCc2ccccc21,"0.146 µM [falling, full curve, poor fit]",–
Nc1nc(NCc2ccco2)nc(NC2CCCCC2)c1[N+](=O)[O-],"3.55 µM [rising, single point]",–
COC(=O)c1ccc(NC(=O)c2nc(S(=O)(=O)Cc3cccc(C)c3)ncc2Cl)cc1,"7.08 µM [falling, partial curve]",–
O=C(Nc1nnc(-c2ccc(Br)cc2)o1)C1=COCCO1,"29.1 µM [falling, single point]",–
CC1(C)OC(=O)C(=Cc2ccc(-c3ccc(S(N)(=O)=O)cc3)o2)C(=O)O1,"10 µM [rising, partial curve, poor fit]",–
Cc1ccc(-c2nnn(CC(=O)N(Cc3ccco3)C(C(=O)NC(C)(C)C)c3ccc(C)o3)n2)o1 (stereo unspecified),"2.82 µM [falling, partial curve, poor fit]",–
O=C1C(c2ccc(F)cc2)N(CCc2ccccc2)C(=O)CN1C1CCCCC1 (stereo unspecified),"3.16 µM [rising, partial curve, poor fit]",–
CCOc1ccccc1NC(=O)CSc1nnnn1-c1ccccc1,"1.84 µM [falling, full curve, poor fit]",–
CC(c1ccccc1)N1CCn2c(nc3cc(NC(=O)c4cccs4)ccc32)C1 (stereo unspecified),"5.17 µM [falling, full curve, poor fit]",–
CCOC(=O)c1ccc(N2C(=O)c3n[nH]c(C)c3C2c2ccc(OC)cc2)cc1 (stereo unspecified),"35.5 µM [falling, single point]",–
Cn1nnnc1Sc1ncnc2scc(-c3ccc(C#N)cc3)c12,–,"32.6 µM [falling, partial curve, poor fit]"
COc1ccc(N2C(=O)c3ccccc3NC2c2ccccc2O)cc1 (stereo unspecified),"14.1 µM [falling, single point]",–
CCOc1ccc(C(=O)N2CCCC2)cc1,"13 µM [rising, partial curve, poor fit]",–
Cc1cc(/C=C(\C#N)C(=O)Nc2ccccc2F)c(C)[nH]1,"15.8 µM [falling, partial curve]",–
CC(C)c1nnc(NC(=O)CSc2nc3ccccc3s2)s1,"15.8 µM [rising, single point]",–
Cn1cnc([N+](=O)[O-])c1S(=O)(=O)c1cccc(Cl)c1,"25.9 µM [falling, single point]",–
CC(=O)NN1C(=O)/C(=C\c2ccc(Br)o2)SC1=S,"7.31 µM [falling, partial curve]",–

SMILES,AC50 [1],AC50 [2]
Cc1cc(C(=O)OC(C(=O)Nc2cccc(C(F)(F)F)c2)c2ccccc2)c(C)o1 (stereo unspecified),–,"23.1 µM [rising, partial curve, poor fit]"
COc1ccc(N)cc1-n1cnnn1,"35.5 µM [falling, partial curve, poor fit]",–
COc1cccc(-c2cc(C(=O)N3CCOCC3)no2)c1,"10 µM [falling, partial curve]",–
COc1ccc(N2CCN(c3nc4c(c(=O)n(C)c(=O)n4C)n3Cc3ccccc3)CC2)cc1,"0.00517 µM [rising, full curve, poor fit]",–
O=C1c2ccccc2CN1C(CO)Cc1ccccc1 (stereo unspecified),"20 µM [rising, single point]",–
CC(C)/C=N\NC(=O)CCCCC(=O)N/N=C/C(C)C,"8.2 µM [falling, partial curve, poor fit]",–
O=Cc1c(Sc2ccccn2)nc2ccccn2c1=O,"20.6 µM [falling, single point]",–
Cc1cccn2c(CNCCCOc3cccnc3)c(C(=O)N3CCOCC3)nc12,"11.2 µM [falling, single point]",–
COc1cccc(CNC(=O)C(=O)NCC2OCCCN2S(=O)(=O)c2cc(C)ccc2C)c1 (stereo unspecified),"10 µM [falling, partial curve, poor fit]",–
CCC(C)Cn1c(S(=O)(=O)O)nc2ccccc21 (stereo unspecified),"6.51 µM [falling, single point]",–
Brc1csc(/C=N/Nc2nc3ccccc3s2)c1,"9.2 µM [falling, partial curve]",–
Cc1cc(C)cc(OCc2ccc(C(=O)NC3CCOC3=O)o2)c1 (stereo unspecified),"35.5 µM [falling, single point]",–
O=C(CCN1CCc2ccccc2CC1)c1ccc2c(c1)OCCO2,"0.116 µM [falling, full curve, poor fit]",–
CC(C)OCCCN1C(=O)c2[nH]nc(-c3ccccc3O)c2C1c1cccc(Cl)c1 (stereo unspecified),"18.4 µM [falling, partial curve]",–
CC(C)COc1ccc(C(=O)Nc2cc(S(=O)(=O)N3CCOCC3)ccc2N2CCCC2)cc1,"14.6 µM [rising, partial curve, poor fit]","16.4 µM [falling, partial curve, poor fit]"
CC(/C=N/Nc1ccc2nncn2n1)=C\c1ccccc1,"0.708 µM [rising, partial curve]",–
Cc1cc2ccccn2c1C(=O)c1ccc(NN)c([N+](=O)[O-])c1,"7.94 µM [falling, partial curve]",–
NC1=NN(c2cccc(C(=O)O)c2)C(=O)C1,"11.6 µM [falling, partial curve]",–
COc1ccc(-c2[nH]ncc2CN2CCSCC2)c(OC)c1,"35.5 µM [rising, single point]",–
c1ccc(-c2nnc3n2N=C(c2ccc4c(c2)OCO4)CS3)nc1,"7.08 µM [falling, partial curve, poor fit]",–
CCOC(=O)C1=NN(c2ccc(Cl)cc2)C(=O)C1,"6.31 µM [rising, partial curve, poor fit]",–

# Source: PubChem BioAssay AID493014 (National Center for Advancing Translational Sciences (NCATS), 2011)
